Reference: publication PMC12431657, “Discovery and mechanistic insights of dibenzoylmethane as a broad spectrum inhibitor of coronavirus” (PLOS Pathogens, 2025)
Where two headings read alike, the source gives them in different places. The campaign covered roughly 3,300 compounds. About 95 (3%) showed an effect of 50% or more. This is one part of the list. Numbered stars: 1 amine (or outer) side, 2 acyl side, 3 side chain; on linkers, the order of the positions; unused ones are H or OH. Bridge positions count the residues as written; N and C are the ends. Square brackets hold non-standard residues; d marks the D form. Peptide text beside a SMILES is read from it. * marks the point of attachment. Orn(4R-OH,5R-OH) = O=C([C@H](C[C@@H](O)[C@@H](O)N[*:3])N[*:1])[*:2]; Tetradecanoyl(10R,12S-Me2) = CC[C@H](C)C[C@H](C)CCCCCCCCC(=O)*; hTyr(3S-OH,4S-OH) = N[C@H](C(=O)O)[C@H](O)[C@@H](O)c1ccc(O)cc1; Gln(3R-OH) = NC(=O)C[C@@H](O)[C@H](N)C(=O)O; Pro(3S-OH) = O=C(O)[C@H]1NCC[C@@H]1O; Hyp = O=C(O)[C@@H]1C[C@@H](O)CN1

System: HCoV-229E
Design: species or system Huh-7; HTS, protection from HCoV-229E induced cell death, luminescent cell viability (CellCounting-Lite 2.0), inhibition rate
Conditions: 24 h post infection, 1 h compound pre-incubation, 10 µM, inhibitor

Row | Compound | 229E Inhibition rate [%] | 229E Inhibition rate (229E Inhibition rate, 24 h) [%]
1 | CO[C@@H]1[C@H](O)[C@@H](CO)O[C@H]1n1cnc2c(N)ncnc21 [2'-O-Methyladenosine] | 7.5 | 
2 | CC1=CC(=O)CC(C)(C)C1=O [Ketoisophorone] | 22.3 | 
3 | COc1cc2c(cc1O)CC[C@@H]1[C@@H]2CC[C@]2(C)[C@@H](O)CC[C@@H]12 [2-Methoxyestradiol] | 20.9 | 
4 | COc1cc(-c2coc3cc(O[C@@H]4O[C@H](CO)[C@@H](O)[C@H](O)[C@H]4O)c(OC)c(O)c3c2=O)ccc1O [Iristectorin B] | 11.1 | 
5 | CC(=O)O[C@H]1Cc2cc3c(cc2[C@H]2N(C)Cc4c(ccc5c4OCO5)[C@@]12C)OCO3 [Acetylcorynoline] | 14 | 
6 | COc1cc([C@H]2OC[C@H]3[C@@H]2CO[C@H]3c2ccc(OC)c(OC)c2)ccc1O [Phillygenin] | 20.9 | 
7 | Nc1ccc(O)c(C(=O)O)c1 [5-Aminosalicylic Acid] | 17.3 | 
8 | Nc1ncnc(N[C@@H]2O[C@H](CO)[C@@H](O)[C@H]2O)c1[N+](=O)[O-] [Clitocine] | 17.5 | 
9 | O=C(O)/C=C(/CC(=O)O)C(=O)O [(Z)-Aconitic acid] | 17.7 | 
10 | CO[C@@H]1[C@@H](O[C@@H]2O[C@H](C)[C@@H](O[C@H]3C[C@@](C)(O)[C@@H](O)[C@H](C)O3)[C@H](N(C)C)[C@H]2O)[C@@H](CC=O)C[C@@H](C)[C@@H](O[C@H]2CC[C@H](N(C)C)[C@@H](C)O2)/C=C/C=C/C[C@@H](C)OC(=O)C[C@H]1O [Spiramycin I] | 7.6 | 
11 | O=C1c2ccccc2C(=O)c2ccccc21 [Anthraquinone] | 24.8 | 
12 | O=C(N[C@@H](c1ccccc1)[C@@H](O)C(=O)O)c1ccccc1 [N-Benzoyl-(2R,3S)-3-phenylisoserine] | 24.7 | 
13 | COc1c(CC=C(C)C)c(O)cc2oc(=O)c(-c3ccc(O)cc3O)cc12 [Glycycoumarin] | 5.6 | 
14 | CC[C@]12C=CCN3CC[C@]4(C(=C(C(=O)OC)C1)Nc1ccccc14)[C@@H]32 [Tabersonine] | 0 | 
15 | COc1cc(/C=C/C(=O)OCC[N+](C)(C)C)cc(OC)c1O [Sinapine] | 13.4 | 
16 | CC(C)(O)CC[C@@H](O)[C@](C)(O)[C@H]1CC[C@@]2(O)C3=CC(=O)[C@@H]4C[C@@H](O)[C@@H](O)C[C@]4(C)[C@H]3[C@H](O)C[C@]12C [Turkesterone] | 13.1 | 
17 | CCOC(=O)CCC(=O)OCC [Diethyl succinate] | 7.8 | 
18 | C[C@@H]1CC[C@@]2(OC1)O[C@H]1C[C@H]3[C@@H]4CC[C@H]5C[C@@H](O)CC[C@]5(C)[C@H]4CC[C@]3(C)[C@H]1[C@@H]2C [Tigogenin] | 11 | 
19 | Oc1cc(O)cc(/C=C/c2ccccc2)c1 [Pinosylvin] | 27.9 | 
20 | O=c1c(O)c(-c2ccccc2)oc2ccccc12 [Flavonol] | 0 | 

Row | Compound | 229E Inhibition rate [%] | 229E Inhibition rate (229E Inhibition rate, 24 h) [%]
21 | O=C(O)[C@@H](O)[C@@H](O)[C@H](O)[C@@H](O)C(=O)O [D-Glucaric acid (potassium)] | 8.8 | 
22 | COc1cc2c(CCNC(C)=O)c[nH]c2cc1O [6-Hydroxymelatonin] | 16.5 | 
23 | O=C(O)[C@@H]1Cc2nc[nH]c2CN1 [Spinacine] | 20.9 | 
24 | O=C(O)CNC(=O)c1ccccc1 [Hippuric acid] | 8.9 | 
25 | CC[C@H](C)C[C@H](C)CCCCCCCCC(=O)N[C@H]1C[C@@H](O)[C@@H](O)NC(=O)[C@@H]2[C@@H](O)CCN2C(=O)[C@H]([C@H](O)CC(N)=O)NC(=O)[C@H]([C@H](O)[C@@H](O)c2ccc(O)cc2)NC(=O)[C@@H]2C[C@@H](O)CN2C(=O)[C@H]([C@@H](C)O)NC1=O [Pneumocandin B0] ({Tetradecanoyl(10R,12S-Me2)}-[Orn(4R-OH,5R-OH)]T[Hyp][hTyr(3S-OH,4S-OH)][Gln(3R-OH)][Pro(3S-OH)]; lactam 1-C) | 12.2 | 
26 | O=C(O)[C@H](O)[C@@H](O)C(=O)O [L-Tartaric acid] |  | 17.2
27 | COc1cc(OC)c2c(=O)c(OC)c(-c3ccc(OC)c(OC)c3)oc2c1 [3,5,7,3′,4′-Pentamethoxyflavone] | 13.3 | 
28 | O=C(O)Cc1ccccc1O [2-Hydroxyphenylacetic acid] | 12.4 | 
29 | NCc1ccccc1O [o-Hydroxybenzylamine] | 9.2 | 
30 | Nc1[nH]cnc2ncnc1-2 [Adenine (hemisulfate)] |  | 12.1
31 | CC(=O)O[C@@H](C[C@@H](C)C1=C2C[C@H](O)[C@H]3[C@@]4(C)CCC(=O)C(C)(C)[C@@H]4CC[C@]3(C)[C@@]2(C)CC1)[C@H]1OC1(C)C [Alisol B 23-acetate] | 8.7 | 
32 | OCC1(O)COc2cc(O)ccc2-c2cc(O)c(O)cc2C1 (stereo not drawn) [Protosappanin B] | 0 | 
33 | O=c1c(O)c(-c2cc(O)c(O)c(O)c2)oc2cc(O)ccc12 [Robinetin] | 12.3 | 
34 | COc1ccc(-c2oc3c(CC=C(C)C)c(O)cc(O)c3c(=O)c2O[C@@H]2O[C@@H](C)[C@H](O)[C@@H](O)[C@H]2O)cc1 [Baohuoside I] | 13 | 
35 | NCCCC[C@H](N)C(=O)O [L-Lysine] |  | 15.3
36 | CC(=O)OC/C=C(C)/C=C/C=C(C)/C=C/C1=C(C)CCCC1(C)C [Retinyl acetate] | 15.6 | 
37 | CCCCCCCCCCCCCCCCCC(=O)O [Stearic acid] | 19 | 
38 | NC(CO)C(=O)O (racemic) [DL-Serine] | 9.1 | 
39 | CC[C@H]1OC(=O)C[C@@H](O)[C@H](C)[C@@H](O[C@@H]2O[C@H](C)[C@@H](O[C@H]3C[C@@](C)(O)[C@@H](O)[C@H](C)O3)[C@H](N(C)C)[C@H]2O)[C@@H](CC=O)C[C@@H](C)C(=O)/C=C/C(C)=C/[C@@H]1CO[C@@H]1O[C@H](C)[C@@H](O)[C@@H](OC)[C@H]1OC [Tylosin (tartrate)] |  | 18.5
40 | OC[C@@H](O)[C@@H](O)CO [meso-Erythritol] | 12.6 | 

Among those listed so far, these contain four or more nitrogen atoms.
Row | Compound | 229E Inhibition rate [%] | 229E Inhibition rate (229E Inhibition rate, 24 h) [%]
1 | CO[C@@H]1[C@H](O)[C@@H](CO)O[C@H]1n1cnc2c(N)ncnc21 [2'-O-Methyladenosine] | 7.5 | 
8 | Nc1ncnc(N[C@@H]2O[C@H](CO)[C@@H](O)[C@H]2O)c1[N+](=O)[O-] [Clitocine] | 17.5 | 
25 | CC[C@H](C)C[C@H](C)CCCCCCCCC(=O)N[C@H]1C[C@@H](O)[C@@H](O)NC(=O)[C@@H]2[C@@H](O)CCN2C(=O)[C@H]([C@H](O)CC(N)=O)NC(=O)[C@H]([C@H](O)[C@@H](O)c2ccc(O)cc2)NC(=O)[C@@H]2C[C@@H](O)CN2C(=O)[C@H]([C@@H](C)O)NC1=O [Pneumocandin B0] ({Tetradecanoyl(10R,12S-Me2)}-[Orn(4R-OH,5R-OH)]T[Hyp][hTyr(3S-OH,4S-OH)][Gln(3R-OH)][Pro(3S-OH)]; lactam 1-C) | 12.2 | 
30 | Nc1[nH]cnc2ncnc1-2 [Adenine (hemisulfate)] |  | 12.1

(next part)

Row | Compound | 229E Inhibition rate [%] | 229E Inhibition rate (229E Inhibition rate, 24 h) [%]
41 | CN1c2c(nc(N)[nH]c2=O)NCC1CNc1ccc(C(=O)N[C@@H](CCC(=O)O)C(=O)O)cc1 (stereo partly drawn) [5-Methyltetrahydrofolic acid] | 11.5 | 
42 | COC(=O)C1=COC(O[C@@H]2O[C@H](CO)[C@@H](O)[C@H](O)[C@H]2O)/C(=C/C(=O)O)C1CC(=O)OCCc1ccc(O)cc1 (stereo partly drawn) [Ligustrosidic acid] | 10.3 | 
43 | C[N+](C)(C)CCOP(=O)(O)OP(=O)([O-])OC[C@H]1O[C@@H](n2ccc(N)nc2=O)[C@H](O)[C@@H]1O [Citicoline (sodium)] |  | 9.6
44 | O=C(O)c1cccc(O)c1 [3-Hydroxybenzoic acid] | 18.9 | 
45 | O=c1c(O[C@@H]2OC[C@@H](O)[C@H](O)[C@H]2O)c(-c2ccc(O)c(O)c2)oc2cc(O)cc(O)c12 [Reynoutrin] | 19.1 | 
46 | C[C@@H]1O[C@@H](O[C@H]2[C@H](O[C@H]3CC[C@@]4(C)[C@@H](CC[C@]5(C)[C@@H]4CC=C4[C@@H]6CC(C)(C)CC[C@]6(C(=O)O)CC[C@]45C)[C@]3(C)CO)OC[C@H](O)[C@@H]2O)[C@H](O)[C@H](O[C@@H]2O[C@H](CO)[C@@H](O[C@@H]3O[C@H](CO)[C@@H](O)[C@H](O)[C@H]3O)[C@H](O)[C@H]2O)[C@H]1O [Macranthoside B] | 9.3 | 
47 | O=Cc1ccc(O[C@@H]2O[C@H](CO)[C@@H](O)[C@@H](O)[C@H]2O)cc1 [Helicid] | 0 | 
48 | O=C1CC[C@H](C(=O)O)N1 [(R)-5-Oxopyrrolidine-2-carboxylic acid] | 6.6 | 
49 | COc1ccc([C@H]2OC[C@H]3[C@@H]2CO[C@@H]3c2ccc(OC)c(OC)c2)cc1OC [Eudesmin] |  | 24
50 | COc1ccc(/C=C/C(=O)O)cc1OC [(E)-3,4-Dimethoxycinnamic acid] |  | 9.6
51 | C[C@]12C=CC(=O)C=C1CC[C@@H]1[C@@H]2[C@@H](O)C[C@@]2(C)[C@H]1CC[C@]2(O)C(=O)CO [Prednisolone] | 20.1 | 
52 | C/C=C(/C)C(=O)O[C@H]1[C@@H](OC(=O)CC(C)C)c2c(ccc3ccc(=O)oc23)OC1(C)C [Praeruptorin E] | 43.4 | 
53 | O=C(O)c1cc(=O)c2cccc(O)c2[nH]1 [Xanthurenic acid] | 9.1 | 
54 | CN[C@@H](C)[C@H]1[C@H](O)C[C@@]2(C)[C@@H]3CC[C@H]4C(C)(C)[C@@H](NC)CC[C@@]45C[C@@]35CC[C@]12C [Cyclovirobuxine D] | 55.2 | 
55 | CC1(C)OC(=O)C=C[C@]2(C)[C@H]3CC[C@@]4(C)[C@H](c5ccoc5)OC(=O)[C@H]5O[C@]54[C@]3(C)C(=O)C[C@@H]12 [Obacunone] | 19.5 | 
56 | CC(=O)CO [Hydroxyacetone] | 0 | 
57 | C=C(C)[C@@H]1CCC2=CC(=O)C[C@@H](C)[C@]2(C)C1 [Nootkatone] | 17.6 | 
58 | CCC/C=C1\OC(=O)C2=C1CC[C@H]1[C@H]3C=C4C(=O)O/C(=C\CCC)[C@@]4(CC3)[C@@H]21 [Levistolide A] | 60.4 | 
59 | O=c1cc(-c2cc(O)c(O)c(O)c2)oc2cc(O)cc(O)c12 [Tricetin] | 5.6 | 
60 | C[C@@H]1CC[C@@]2(NC1)O[C@H]1C[C@H]3[C@@H]4CC=C5C[C@@H](O[C@@H]6O[C@H](CO)[C@@H](O[C@@H]7O[C@@H](C)[C@H](O)[C@@H](O)[C@H]7O)[C@H](O)[C@H]6O[C@@H]6O[C@@H](C)[C@H](O)[C@@H](O)[C@H]6O)CC[C@]5(C)[C@H]4CC[C@]3(C)[C@H]1[C@@H]2C [Solamargine] | 6.1 | 
